The results in this text go back to article PMC7915196.

Amino acid sequences for entries named in this document (tags omitted).
UniProt Q04206: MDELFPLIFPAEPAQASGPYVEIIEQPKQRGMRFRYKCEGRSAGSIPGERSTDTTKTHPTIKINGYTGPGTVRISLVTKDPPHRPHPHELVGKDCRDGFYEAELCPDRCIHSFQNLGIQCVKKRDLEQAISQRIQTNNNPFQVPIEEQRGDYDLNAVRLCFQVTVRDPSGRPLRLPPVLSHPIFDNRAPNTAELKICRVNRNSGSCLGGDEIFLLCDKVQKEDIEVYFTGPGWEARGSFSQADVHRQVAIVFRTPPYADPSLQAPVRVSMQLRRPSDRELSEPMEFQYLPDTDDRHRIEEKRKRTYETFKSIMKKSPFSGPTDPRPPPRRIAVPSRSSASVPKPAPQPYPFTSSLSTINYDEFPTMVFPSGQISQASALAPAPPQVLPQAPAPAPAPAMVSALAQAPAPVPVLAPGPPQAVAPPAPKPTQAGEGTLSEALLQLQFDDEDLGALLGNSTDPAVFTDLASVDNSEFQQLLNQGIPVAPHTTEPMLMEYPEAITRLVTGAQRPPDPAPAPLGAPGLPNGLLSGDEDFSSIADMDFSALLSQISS
UniProt P05412: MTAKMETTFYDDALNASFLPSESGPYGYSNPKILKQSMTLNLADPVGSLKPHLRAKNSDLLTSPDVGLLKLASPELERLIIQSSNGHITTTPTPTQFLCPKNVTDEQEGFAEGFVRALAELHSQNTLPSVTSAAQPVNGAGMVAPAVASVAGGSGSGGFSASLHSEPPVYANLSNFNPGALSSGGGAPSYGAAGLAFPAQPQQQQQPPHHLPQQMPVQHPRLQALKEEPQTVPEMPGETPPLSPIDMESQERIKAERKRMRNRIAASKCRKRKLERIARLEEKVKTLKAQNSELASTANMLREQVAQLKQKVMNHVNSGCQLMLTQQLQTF
UniProt P08047: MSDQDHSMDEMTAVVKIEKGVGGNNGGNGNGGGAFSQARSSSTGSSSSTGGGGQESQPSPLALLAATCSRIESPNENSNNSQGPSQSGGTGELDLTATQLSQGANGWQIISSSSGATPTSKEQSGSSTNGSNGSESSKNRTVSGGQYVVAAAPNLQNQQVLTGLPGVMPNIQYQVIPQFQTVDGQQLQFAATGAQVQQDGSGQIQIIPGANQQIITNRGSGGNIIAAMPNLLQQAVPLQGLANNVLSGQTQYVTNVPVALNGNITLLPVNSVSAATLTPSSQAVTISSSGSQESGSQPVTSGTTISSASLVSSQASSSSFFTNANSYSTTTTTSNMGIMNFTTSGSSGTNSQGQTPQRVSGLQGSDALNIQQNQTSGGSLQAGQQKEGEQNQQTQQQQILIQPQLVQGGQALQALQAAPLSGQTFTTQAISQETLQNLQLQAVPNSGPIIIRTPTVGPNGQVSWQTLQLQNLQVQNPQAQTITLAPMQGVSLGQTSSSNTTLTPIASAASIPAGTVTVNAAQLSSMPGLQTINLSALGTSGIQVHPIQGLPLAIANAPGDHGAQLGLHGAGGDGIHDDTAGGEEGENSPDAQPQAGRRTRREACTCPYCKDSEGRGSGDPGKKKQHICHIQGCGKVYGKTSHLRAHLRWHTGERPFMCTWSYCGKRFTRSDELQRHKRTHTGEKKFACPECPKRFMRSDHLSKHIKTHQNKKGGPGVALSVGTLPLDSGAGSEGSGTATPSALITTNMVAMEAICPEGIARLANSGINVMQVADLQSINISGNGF
UniProt P38936: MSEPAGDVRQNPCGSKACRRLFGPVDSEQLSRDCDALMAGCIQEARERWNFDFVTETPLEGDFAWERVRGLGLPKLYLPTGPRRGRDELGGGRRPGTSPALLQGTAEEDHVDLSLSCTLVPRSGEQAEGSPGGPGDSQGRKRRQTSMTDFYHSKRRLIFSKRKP

Test [1] addresses nuclear factor kappa B p65 subunit (NFκB/p65) (human (endogenous in KYSE150)) (UniProt Q04206). Kind of test: co-IP; nuclear extracts (500 µg/mL) of KYSE150 cells, untreated or treated with MLN4924 (1 µM, 24 h) or TNF-α (30 ng/mL, 1 h); anti-NFκB/p65 antibody overnight at 4 °C, Protein G magnetic beads, washed with 10 mM HEPES pH 7.6; Western blot.
Test [2] addresses c-Jun (human (endogenous in KYSE150)) (UniProt P05412). Kind of test: co-IP; nuclear protein-enriched extracts of KYSE150 cells, untreated or treated with MLN4924 (1 µM, 24 h) or TNF-α (30 ng/mL, 1 h); rabbit anti-c-Jun antibody; Western blot.

No constants are given. Whether binding was seen depends on the method and setting. Binding seen in cells or lysates may run through a third protein. Some entries that bind do so weakly or less than the wild type.

On to SP1 (from UniProt P08047 1-785), for which the binding result in test [1] was “binds”. c-Jun (from UniProt P05412 1-331): the binding entry in test [1] was “binds”. Still for that read-out and setting: for “cyclin dependent kinase inhibitor 1A (CDKN1A/p21) (from UniProt P38936 1-164)” the value was “binds”.

Take “nuclear factor kappa B p65 subunit (NFκB/p65) (from UniProt Q04206 1-551)”: the binding entry in test [2] was “binds”. With “phospho-c-Jun (Ser73) (from UniProt P05412 1-331)”, in test [1], the binding entry is reported as “binds”.
